Test results taken from US20190100591A1 (ITEOS BELGIUM, published 2019).
These are yes or no findings as the source states them, for the method shown. Some binding calls cover weakened binding; strength is not graded here.

T1: human TIGIT expressed on cells (human, UniProt Q495A1 22-244)
T1 construct: whole, on cells; on Jurkat E6.1 cells transduced with human TIGIT, on Promega TIGIT effector cells or on human primary T cells; the cell is named under assay; also called hTIGIT; Jurkat-hTIGIT
T1 sequence (looked up): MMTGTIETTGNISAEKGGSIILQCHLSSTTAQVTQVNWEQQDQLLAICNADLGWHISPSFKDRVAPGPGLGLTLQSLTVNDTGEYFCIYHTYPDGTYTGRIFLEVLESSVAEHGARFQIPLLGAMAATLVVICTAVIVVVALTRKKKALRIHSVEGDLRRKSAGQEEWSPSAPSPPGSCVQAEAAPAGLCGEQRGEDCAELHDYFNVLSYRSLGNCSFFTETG

B1: anti-TIGIT antibody clone 29520 (antibody, V domains shown)
VH: QVQLVESGGGLVQPGRSLRLSCAASGFTFRDYAMHWVRQAPGKGLEWVSGITWNSGLIGYADSVKGRFTISRDNAKNSLYLQMNSLRAEDTALYYCAKPVPRLRGLDVWGQGTMVTVSS
VL: DIQLTQSPSSVSASVGDRVTITCRASQGISSWLAWYQQKPGKAPKLLIYGASSLQSGVPSRFSGSGSGTDFTLTISSLQPEDFATYYCQQAFYLPWTFGGGTKVEIK
B2: anti-TIGIT antibody clone 29527 (antibody, V domains shown)
VH: QVQLVESGGGVVQPGRSLRLSCAASGFTFSSSYMHWVRQAPGKGLEWVAVIGADGSNKYYADSVEGRFTISRDNSKNTLYLQMNSLRAEDTALYYCAKPVPRRRGLDVWGQGTMVTVSS
VL: DIQLTQSPSSVSASVGDRVTITCRASQGISSWLAWYQQKPGKAPKLLIYGASSLQSGVPSRFSGSGSGTDFTLTISSLQPEDFATYYCQQAFYLPWTFGGGTKVEIK
B3: anti-TIGIT antibody TIG1 (antibody, human IgG1, V domains shown)
VH: DVQLVESGGGLVQPGGSRKLSCAASGFTFSNFGMHWVRQAPEKGLEWVAFISSGSSSIYYADTVKGRFTISRDNPKNTLFLQMTSLRSEDTAMYYCARMRLDYYAMDYWGQGTSVTVSS
VL: DVQITQSPSYLAASPGETITINCRASKSISKYLAWYQEKPGKTNKLLIYSGSTLQSGIPSRFSGSGSGTDFTLTISSLEPEDFAMYYCQQHNEYPWTFGGGTKLEIK

How the values were obtained:
[1] = molecular target: cynomolgus TIGIT on primary CD8+ T cells (Macaca fascicularis (cynomolgus)); assay: flow cytometry on stimulated cynomolgus PBMC, gated on CD69+CD8+ T cells, detection with anti-human Ig (Fc gamma specific)-PE
[2] = molecular target: T1, human TIGIT expressed on cells; assay: flow cytometry, Jurkat-hTIGIT
[3] = molecular target: T1, human TIGIT expressed on cells; assay: flow cytometry on human PBMC of healthy donors, MFI on gated TIGIT+CD8+ T cells, detection with anti-human Ig (Fc gamma specific)-PE
[4] = molecular target: T1, human TIGIT expressed on cells; assay: flow cytometry competition on Jurkat-hTIGIT: cells incubated with the antibody, washed, then CD155-His (15 ug/ml) detected with anti-His-PE; blocked ligand CD155-His
[5] = molecular target: T1, human TIGIT expressed on cells; assay: flow cytometry on PBMC of cancer patients, MFI on gated TIGIT+CD8+ T cells, detection with anti-human Ig (Fc gamma specific)-PE
[6] = molecular target: T1, human TIGIT expressed on cells; assay: flow cytometry on Jurkat-hTIGIT, detection with anti-human Ig (Fc gamma specific)-PE

Binder | binding [1] | binding [2] | binding [3] | binding [4] | binding [5] | binding [6]
B1 | binds |  |  |  |  | 
B2 | binds |  |  |  |  | 
B3 |  | binds | binds | binds | binds | binds
